# In patent US20240299356A1, “DEVELOPMENT OF PRMT-TARGETING THERAPY TO ENHANCE EGFR-TARGETING DRUG EFFICACY IN NSCLC” (The Regents of the University of California, priority 2021, published 2024):
# Tested on: lung cancer cell lines
# Assay: Drug tolerance in lung cancer cell models
# Format: cell-based
# Procedure: FIGS. 3A-3D present exemplary data showing that Type I PRMT inhibition enhanced cancer drug efficacy. […] FIGS. 3B-3D present data showing the correlation between endogenous STAT1 expression levels and the efficacy of type I PRMT inhibition. […] Gray dots indicate cell lines that were tested for the efficacies of type I PRMT inhibition (by MS023).
# Can type I PRMT inhibition provide a general strategy for reducing drug tolerance and enhance efficacies of SOC drugs? STAT1 signaling can be activated by various sources in tumors, including interferon (IFN)-producing immune cells in the tumor microenvironment, endogenous nucleic acids, and cancer therapeutics (FIG. 2H)^31. […] We also observed efficacy of MS023 with gemcitabine in various pancreatic cancer cell lines (FIG. 6A).
structure (smiles),measurement,setting,value
CC(C)Oc1ccc(-c2c[nH]cc2CN(C)CCN)cc1 [MS023],tolerance-reducing efficacies (AUC) versus MDR1 expression,each dot a cancer cell line model (FIG. 11),did not correlate with MDR1 expressions
same,efficacy (AUC of dose-response) versus endogenous STAT1 expression,"panel of lung cancer drug tolerance models without added IFNγ (FIGS. 3C, 3D)",correlated with endogenous STAT1 expression levels
